The source of these data is patent US6140490.

For at least one entry, the source does not settle the construct or the ends of the probe.

In the first series the test system is Complement C1q (Homo sapiens). Briefly: SELEX. The conditions noted are these: 2'-F C and U; MgPBS, 37 C; cloned from evolved pool; purified native protein; protein details: Quidel.
Take “GGGAGGACGAUGCGGUCGAUGUUCUUCCUCACCACUGCUCGUCGCCUCAGACGACUCGCCCGA [C1B115c]”: the selection result is given as “selected”.

In the case of “GGGAGGACGAUGCGGUUCCACAUCGAAUUUUCUGUCCGUGUCGUCAGACGACUCGCCCGA [c1q-a6C]”, the selection result is “selected”.

Regarding “GGAGGACGAUGCGGAGCGAAAGUGCGAGUGAUUGACCAGGUGCUCAGACGACUCGCCCGA [C1q4c]”, the selection result was “selected”.

Regarding “GGGAGGACGAUGCGGCAUCUUCCUUGUUCUUCCAACCGUGCUCCUCAGACGACUCGCCCGA [04.C1Q.138c]”, the selection result is “selected”.

In the case of “GGGAGGACGAUGCGGGAAGUGGAAGGGUAGUUGUGUGACCUCAGACGACUCGCCCGA [C119c]”, the selection result is given as “selected”.

As to “GGGAGGACGAUGCGGCAAGAGGUCAGACGACUGCCCCGAGUCCUCCCCCGGUCAGACGACUCGCCCGA [C122c]”, the selection result was “selected”.

Turning to “GGGAGGACGAUGCGGAUGGUACUUUAGUCUUCCUUGAUUCCGCCUCAGACGACUCGCCCGA [34c1qb27c]”, the selection result is given as “selected”.

Regarding “GGAGGACGAUGCGGGAACCAAAUCGUCGAUCUUUCCACCGCUCGUCAGACGACUCGCCCGA [C1q9c]”, the selection result was “selected”.

Regarding “GGGAGGACGAUGCGGGGCCGACGAUUCACCAAUGUUCUCUCUGGUCAGACGACUCGCCCGA [30c1Q24c (GGCC)]”, the selection result is on record as “selected”.

In the case of “GGGAGGACGAUGCGGUUCCGCAAGUUUAGACACUCACUGCCUCGUCAGACGACUCGCCCGA [10.C1Q151c]”, the selection result is on record as “selected”.

Turning to “GGGAGGACGAUGCGGUUCCGAUCGACUCCACAUACAUCUGCUCGUCAGACGACUCGCCCGA [C1B114c]”, the selection result is on record as “selected”.

With “GGGAGGACGAUGCGGGACCACCUCGAUCCUCAGCGCCAUUGCCCUCAGACGACUCGCCCGA [C1Q-A10'C]”, the selection result was “selected”.

“GGGAGGACGAUGCGGAUCCGAAUCUUCCUUACACGUCCUGCUCGUCAGACGACUCGCCCGA [c1qrd17-61c]”: the selection result is recorded as “selected”.

Regarding “GGGAGGACGAUGCGGUUCCGAAGUUCUUCCCCCGAGCCUUCCCCCUCCAGACGACUCGCCCGA [05.C1Q.142c]”, the selection result was “selected”.

In the case of “GGGAGGACGAUGCGGAGGAGCUGAUGAAGAUGAUCUCUGACCCCUCAGACGACUCGCCCGA [44c1Qb60c]”, the selection result is on record as “selected”.

As to “GGGAGGACGAUGCGGCAUCGUUCAGGAGAAUCCACUUCGCCUCGUCAGACGACUCGCCCGA [09.C1Q.149c]”, the selection result is recorded as “selected”.

On to “GGAGGACGAUGCGGAUGAGGAGGAAGAGUCUGAGGUGCUGGGGUCAGACGACUCGCCCGA [C1q7c]”, for which the selection result is given as “selected”.

With “GGGAGGACGAUGCGGUGGACUUCUUUUCCUCUUCCUCCUUCCGCCGGUCAGACGACUCGCCCGA [47c1qb65c]”, the selection result is listed as “selected”.

For “GGAGGACGAUGCGGUUCCAAAUCGUCUAAGCAUCGCUCGCUCGUCAGACGACUCGCCCAG [C1q14c]”, the selection result is recorded as “selected”.

For “GGGAGGACGAUGCGGUCGAGCUGAGAGGGGCUACUUGUUCUGGUCACAGACGACUCGCCCGA [33c1Q26c]”, the selection result is listed as “selected”.

As to “GGGAGGACGAUGCGGCUCAACUCUCCCACAGACGACUCGCCCGGGCCUCCUCAGACGACUCGCCCGA [c1qrd17-63c]”, the selection result is recorded as “selected”.

Take “GGGAGGACGAUGCGGAGCACAAUUUUUUCCUUUUCUUUUCGUCCACGUGCUCAGACGACUCGCCCGA [15.C1Q.157c]”: the selection result is “selected”.

Turning to “GGAGGACGAUGCGGAUCCGCAAACCGACAGCUCGAGUUCCGCCUCAGACGACUCGCCCGA [C1q17c]”, the selection result was “selected”.

Regarding “GGGAGGACGAUGCGGUUGAGUGGACAGUGCGAUUCGUUUUGGGGUCAGACGACUCGCCCGA [10.C1B.134c]”, the selection result is recorded as “selected”.

In the case of “GGGAGGACGAUGCGGUGGAAGCGAAUGGGCUAGGGUGGGCUGACCUCCAGACGACUCGCCCGA [01.C1Q.135c]”, the selection result is reported as “selected”.

“GGGAGGACGAUGCGGCCGUCUCGAUCCUUCUAUGCCUUCGCUCGUCAGACGACUCGCCCGA [C1q6 c]”: the selection result is “selected”.

“GGGAGGACGAUGCGGAGGAGAGUGUGGUGAGGGUCGUUUUGAGGGUCAGACGACUCGCCCGA [C111c]”: the selection result is reported as “selected”.

For the sequence “GGAGGACGAUGCGGAUGAUGACUGAACGUGCGACUCGACCUGGCCAGACGACUCGCCCGA [C1ql6c]”, the selection result is on record as “selected”.

Consider “GGGAGGACGAUGCGGGACUCCUCGACCGACUCGACCGGCUCGUCAGACGACUCGCCGA [c1qrd17-47c]”, for which the selection result was “selected”.

Turning to “GGAGGACGAUGCGGGUCGACAUUGAAGCUGCUCUGCCUUGAUCCUCAGACGACUCGCCCGA [Clq20c]”, the selection result is “selected”.

Turning to “CGGAGGACGAUGCGGGCAAACUUUUCCUUUUCCCUUUAUCUUCCUUGCCCUCAGACGACUCGCCCGA [c1qrd17-42c]”, the selection result was “selected”.

For the sequence “GGGAGGACGAUGCGGAGCGUGAGAACAGUUGCGAGAUUGCCUGGUCAGACGACUCGCCCGA [c1qrd17-52c]”, the selection result is listed as “selected”.

As to “GGGAGGACGAUGCGGUUCCGACGAUUCUCCAAUGUUCUCUCUGGUCAGACGACUCGCCCGA [30c1q24c (UUCC)]”, the selection result is on record as “selected”.

The series is the same for the next values; noted with them: 2'-F C and U; selected sequence, ranked at 0.1 and 0.5 nM C1q; purified native protein; protein details: Quidel.
Turning to “GGAGGACGAUGCGGAACACGGAAGACAGUGCGACUCGAUCUGGUCAGACGACUCGCCCGA [C1q5 c]”, the selection result is listed as “selected”.

Turning to “GGGAGGACGAUGCGGAACAAGGACAAAAGUGCGAUUCUGUCUGGCAGACGACUCGCCCG [32.C1B76c]”, the selection result was “selected”.

In the case of “GGAGGACGAUGCGGAACCAAAUCGUCGAUCUUUCCACCGCUCGUCAGACGACUCGCCCGA [C1q11c]”, the selection result is on record as “selected”.

Turning to “GGGAGGACGAUGCGGAACCCAAUCGUCUAAUUCGCUGCUCAUCGUCAGACGACUCGCCCGA [C1Q-A5'c]”, the selection result was “selected”.

Regarding “GGGAGGACGAUGCGGAAGCGGUGAGUCGUGGCUUUCUCCUCGAUCCUCGUCAGACGACUCGCCCGA [c1q-a2C]”, the selection result is “selected”.

As to “GGGAGGACGAUGCGGAGAUGGAUGGAAGUGCUAGUCUUCUGGGGUCAGACGACUCGCCC [14.C1Q156c]”, the selection result is “selected”.

As for “GGGAGGACGAUGCGGAACUCAAUGGGCCUACUUUUCCGUGGUCCUCAGACGACUCGCCCGA [C121c]”, the selection result is on record as “selected”.

In the case of “GGGAGGACGAUGCGGAACACGAAACGGAGGUUGACUCGAUCUGGCCAGACGACUCGCCCGA [c1q-a8c]”, the selection result is given as “selected”.

Regarding “GGGAGGACGAUGCGGAAGGAUGACGAGGUGGUUGGGGUUUGUGCUCAGACGACUCGCCCGA [c1q-a12C]”, the selection result was “selected”.

In the case of “GGGAGGACGAUGCGGAAAGUGGAAGUGAAUGGCCGACUUGUCUGGUCAGACGACUCGCCCGA [c1qrd17-33c]”, the selection result is “selected”.

With “GGGAGGACGAUGCGGAACCGCUAUUGAAUGUCACUGCUUCGUGCUCAGACGACUCGCCCGA [C15c]”, the selection result was “selected”.

In the case of “GGGAGGACGAUGCGGAACAGGUAGUUGGGUGACUCUGUGUGACCUCAGACGACUCGCCCGA [C1B121c]”, the selection result is reported as “selected”.

For the sequence “GGGAGGACGAUGCGGAACCCAAUCGUCUAAUUCGCUGCUCAUCGUCAGACGACUCGCCCGA [C1Q-A24'c]”, the selection result is reported as “selected”.
